These are yes or no findings as the source states them, for the method shown. Binding seen in cells or lysates may run through a third protein. Some binding calls cover weakened binding; strength is not graded here.

The target in the assay is T1, biotinylated synthetic peptide comprising … (SEQ ID No. 6).
T1 sequence (peptide, biotinylated (position not stated)): MAHSCRWRFP
As to the kind of experiment: pull-down on streptavidin-agarose beads loaded with biotinylated peptide, anti-menin Western blot.

B1: menin expressed in and purified from E. coli (protein)
chain: MGLKAAQKTLFPLRSIDDVVRLFAAELGREEPDLVLLSLVLGFVEHFLAVNRVIPTNVPELTFQPSPAPDPPGGLTYFPVADLSIIAALYARFTAQIRGAVDLSLYPREGGVSSRELVKKVSDVIWNSLSRSYFKDRAHIQSLFSFITGWSPVGTKLDSSGVAFAVVGACQALGLRDVHLALSEDHAWVVFGPNGEQTAEVTWHGKGNEDRRGQTVNAGVAERSWLYLKGSYMRCDRKMEVAFMVCAINPSIDLHTDSLELLQLQQKLLWLLYDLGHLERYPMALGNLADLEELEPTPGRPDPLTLYHKGIASAKTYYRDEHIYPYMYLAGYHCRNRNVREALQAWADTATVIQDYNYCREDEEIYKEFFEVANDVIPNLLKEAASLLEAGEERPGEQSQGTQSQGSALQDPECFAHLLRFYDGICKWEEGSPTPVLHVGWATFLVQSLGRFEGQVRQKVRIVSREAEAAEAEEPWGEEAREGRRRGPRRESKPEEPPPPKKPALDKGLGTGQGAVSGPPRKPPGTVAGTARGPEGGSTAQVPAPAASPPPEGPVLTFQSEKMKGMKELLVATKINSSAIKLQLTAQSQVQMKKQKVSTPSDYTLSFLKRQRKGL
For B1, the binding result is on record as “binds”.

Values taken from patent US20090181917A1.
